The other results are listed elsewhere or left out.
Columns and labels:
Test in all cases: log2 fold change, soluble protein after heating vs DMSO (PISA); higher = thermal stabilisation; K562 lysate, 10 uM; active = over 0.2 and 3.5 SD of the protein, either way, in both replicates (recomputed)
[1] = compound: CCCS(=O)(=O)Nc1ccc(F)c(C(=O)c2c[nH]c3ncc(-c4ccc(Cl)cc4)cc23)c1F [vemurafenib]
Summary of the method: (§1)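 To prepare the extract, K562 pellets were dounce-homogenised in PBS pH 7.4 with 1 mM MgCl2, giving crude material at 1 mg/mL protein. This was treated with 10 μM compound for 30 min, then heated in aliquots for 3 min over 48°C-58°C before pooling and addition of NP-40 to 0.5% at 4°C. Centrifugation at 21,000xg for 90 min left soluble protein in the supernatant, which TMTpro 16plex LC-MS/MS quantified with equalised channel sums. Results are log-two fold changes in thermal stability compared with solvent controls, from duplicates.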

Chains of the proteins cited; added tags and fusions are not shown. Lines headed by an entry give the natural chain unless they say otherwise; changes in a name come on top.
UniProt Q8WUF5: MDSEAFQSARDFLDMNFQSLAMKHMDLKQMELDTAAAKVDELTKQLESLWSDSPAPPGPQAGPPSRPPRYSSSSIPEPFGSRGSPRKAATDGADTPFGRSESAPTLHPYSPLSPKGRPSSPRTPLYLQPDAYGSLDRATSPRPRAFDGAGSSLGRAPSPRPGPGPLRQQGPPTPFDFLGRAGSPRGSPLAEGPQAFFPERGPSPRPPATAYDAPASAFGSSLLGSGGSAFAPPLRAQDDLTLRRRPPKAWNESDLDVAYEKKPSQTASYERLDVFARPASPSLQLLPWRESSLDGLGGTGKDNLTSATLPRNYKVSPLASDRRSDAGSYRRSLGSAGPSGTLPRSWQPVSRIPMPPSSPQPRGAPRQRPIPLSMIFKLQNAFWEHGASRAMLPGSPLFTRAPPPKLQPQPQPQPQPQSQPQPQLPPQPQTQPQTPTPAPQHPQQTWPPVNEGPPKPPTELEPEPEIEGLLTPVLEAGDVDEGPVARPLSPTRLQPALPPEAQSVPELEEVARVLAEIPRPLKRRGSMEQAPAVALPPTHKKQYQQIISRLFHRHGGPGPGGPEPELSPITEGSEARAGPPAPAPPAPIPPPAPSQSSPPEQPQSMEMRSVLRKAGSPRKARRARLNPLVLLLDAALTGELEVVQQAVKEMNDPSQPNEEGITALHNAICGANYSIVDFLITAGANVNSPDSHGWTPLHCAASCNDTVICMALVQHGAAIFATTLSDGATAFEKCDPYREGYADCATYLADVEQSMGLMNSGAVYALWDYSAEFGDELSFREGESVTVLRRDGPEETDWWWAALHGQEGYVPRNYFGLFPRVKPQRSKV
UniProt P60510: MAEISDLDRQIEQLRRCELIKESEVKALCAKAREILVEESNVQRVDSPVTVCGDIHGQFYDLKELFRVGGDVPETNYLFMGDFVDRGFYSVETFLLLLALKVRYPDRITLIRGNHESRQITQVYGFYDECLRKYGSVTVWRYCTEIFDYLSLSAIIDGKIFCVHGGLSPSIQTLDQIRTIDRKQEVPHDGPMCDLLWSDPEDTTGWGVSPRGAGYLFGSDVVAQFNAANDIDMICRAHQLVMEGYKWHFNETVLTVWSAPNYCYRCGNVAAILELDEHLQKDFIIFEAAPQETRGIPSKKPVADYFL
UniProt Q13427: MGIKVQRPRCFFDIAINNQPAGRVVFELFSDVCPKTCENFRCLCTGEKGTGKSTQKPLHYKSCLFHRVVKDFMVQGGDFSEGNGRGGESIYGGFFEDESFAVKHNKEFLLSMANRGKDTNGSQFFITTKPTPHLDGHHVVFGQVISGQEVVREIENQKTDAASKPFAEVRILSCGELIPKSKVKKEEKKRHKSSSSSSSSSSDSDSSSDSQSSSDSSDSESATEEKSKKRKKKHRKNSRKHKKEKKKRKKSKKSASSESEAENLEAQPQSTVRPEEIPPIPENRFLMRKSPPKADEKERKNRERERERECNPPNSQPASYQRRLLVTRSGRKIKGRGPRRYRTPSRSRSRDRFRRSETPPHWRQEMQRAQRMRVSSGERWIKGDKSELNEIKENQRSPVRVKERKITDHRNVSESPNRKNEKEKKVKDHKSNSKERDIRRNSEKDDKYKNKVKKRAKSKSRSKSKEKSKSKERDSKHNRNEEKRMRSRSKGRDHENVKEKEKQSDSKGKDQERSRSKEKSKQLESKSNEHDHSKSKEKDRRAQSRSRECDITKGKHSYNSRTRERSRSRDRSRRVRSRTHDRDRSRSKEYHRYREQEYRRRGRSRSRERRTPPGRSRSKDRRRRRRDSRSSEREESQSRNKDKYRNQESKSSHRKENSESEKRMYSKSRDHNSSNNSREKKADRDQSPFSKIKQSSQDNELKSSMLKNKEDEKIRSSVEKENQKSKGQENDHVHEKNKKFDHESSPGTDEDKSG
UniProt Q9UMS4: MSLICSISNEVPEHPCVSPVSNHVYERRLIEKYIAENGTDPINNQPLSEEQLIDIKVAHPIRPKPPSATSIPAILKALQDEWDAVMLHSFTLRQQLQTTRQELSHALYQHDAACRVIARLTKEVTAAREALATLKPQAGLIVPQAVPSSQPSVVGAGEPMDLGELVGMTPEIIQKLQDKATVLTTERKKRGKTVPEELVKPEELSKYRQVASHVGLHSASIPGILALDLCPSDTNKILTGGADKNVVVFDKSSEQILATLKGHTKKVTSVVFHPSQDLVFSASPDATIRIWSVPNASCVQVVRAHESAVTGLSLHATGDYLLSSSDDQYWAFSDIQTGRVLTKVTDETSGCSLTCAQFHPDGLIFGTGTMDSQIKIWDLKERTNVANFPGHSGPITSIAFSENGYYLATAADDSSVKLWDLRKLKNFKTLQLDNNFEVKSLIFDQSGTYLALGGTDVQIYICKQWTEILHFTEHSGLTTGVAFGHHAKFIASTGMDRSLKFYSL

[2] = compound: CCCS(=O)(=O)Nc1ccc(F)c(C(=O)c2c[nH]c3ncc(Cl)cc23)c1F
Summary of the method: as §1

[3] = compound: CCN(CCCOc1ccc2c(Nc3cc(CC(=O)Nc4cccc(F)c4)[nH]n3)ncnc2c1)CCOP(=O)(O)O [barasertib]
Summary of the method: as §1

[4] = compound: CC[C@@H]1C(=O)N(C)c2cnc(Nc3ccc(C(=O)NC4CCN(C)CC4)cc3OC)nc2N1C1CCCC1
Summary of the method: as §1

[5] = compound: CC[C@@H]1C(=O)N(C)c2cnc(Nc3ccc(C(=O)N[C@H]4CC[C@H](N5CCN(CC6CC6)CC5)CC4)cc3OC)nc2N1C(C)C [volasertib]
Summary of the method: as §1

[6] = compound: CCn1c(C(=O)N(C2CC2)C2CC2)cc2c3c(ncn3C)c(Nc3cc(C)n(C)n3)nc21
Summary of the method: as §1

[7] = compound: CCn1cc(-c2ccnc3[nH]c(-c4cccc(CN(C)C)c4)cc23)c(-c2ccc(NC(=O)N(C)C)cc2)n1
Summary of the method: as §1

[8] = compound: CN1CCC(CNc2ccc3ncc(-c4cccc(OC(F)(F)F)c4)n3n2)CC1
Summary of the method: as §1

[9] = compound: CN1CCN(c2nc(C3=C(c4c[nH]c5ccccc45)C(=O)NC3=O)c3ccccc3n2)CC1 [sotrastaurin]
Summary of the method: as §1

[10] = compound: CN1CCN(CCOc2cc(OC3CCOCC3)c3c(Nc4c(Cl)ccc5c4OCO5)ncnc3c2)CC1 [saracatinib]
Summary of the method: as §1

Measured: log2 fold change

PPP1R13L (UniProt Q8WUF5)
inactive: [1] -0.023 | [2] 0.07 | [3] 0.158 | [4] 0.119 | [5] 0.066 | [6] -0.056 | [7] 0.023 | [8] 0.027 | [9] -0.032

PPP4C (UniProt P60510)
inactive: [1] 0.029 | [2] 0.014 | [3] -0.04 | [4] 0.009 | [5] -0.001 | [6] -0.024 | [7] 0.093 | [8] -0.035 | [10] -0.009 | [9] 0.018

PPIG (UniProt Q13427)
inactive: [1] -0.135 | [2] 0.053 | [3] 0.128 | [4] -0.152 | [5] -0.039 | [6] -0.033 | [7] -0.099 | [8] 0.1 | [10] -0.057 | [9] -0.022

PRPF19 (UniProt Q9UMS4)
inactive: [1] -0.03 | [2] -0.004 | [3] -0.01 | [4] -0.051 | [5] 0.013 | [6] 0 | [7] 0.008 | [8] 0.01 | [10] -0.013 | [9] 0.025

PPP3CA isoform 2 (UniProt Q08209)
inactive: [1] -0.008 | [2] -0.037 | [3] 0.025 | [4] 0.046 | [5] -0.005 | [6] 0.032 | [7] 0.115 | [8] -0.182 | [10] 0 | [9] -0.005
